This passage reports host macrophage viability results from the supplement of paper PMC12578635.

± gives the standard deviation of the averaged measurements. The list shows a part of the results. Single values are uncertain, as repeats are few or missing.

In the test the test system is RAW 264.7 macrophages infected with S. aureus JE2-lux. The test is described as follows: host macrophage viability (CellTiter-Fluor) relative to DMSO vehicle; higher = more viable host cells. The conditions noted are these: 10 µM; treatment time 4 h; gentamicin 50 µg/ml.
As to `CCc1ccc2c(c1)c1nnc(SCC(=O)c3ccc(F)cc3)nc1n2C`, the host macrophage viability was 103%.
The figure for `Cc1cccc(C2CCCN2C(=O)c2cc(C(C)C)on2)c1` (configuration not stated) is 119%; for `CCc1ccc2c(c1)c1nnc(SCC(=O)Nc3nnc(C)s3)nc1n2C` it is 124%.
`CCOCc1nnc(NC(=O)c2csc(C(C)=O)c2)s1`: the host macrophage viability amounted to 109%.
In the case of `CCOC(=O)c1oc2cc(O)cc(O)c2c(=O)c1-c1ccc(OC)c(OC)c1`, the host macrophage viability came out at 94.9%.
With `CCCCOc1ccc(-c2cc3c(N4CCN(c5ccc(OC)cc5)CC4)nccn3n2)cc1` the figure was 110%.
The figure for `CCc1ccccc1-n1ccn(CC(=O)c2ccc(F)cc2)c(=O)c1=O` is 124%; for `Nc1c(C(=O)c2ccc(Br)cc2)sc2nc3c(cc12)CCC3` it is 126%.
As to `O=S(=O)(c1cc(-c2noc(C3CC3)n2)cs1)N1CCn2c1nc1ccccc12`, the host macrophage viability stood at 96.2%.
Turning to `O=C(NCc1ccccc1)C(c1ccco1)N(Cc1ccc(F)cc1)C(=O)c1ccccn1` (configuration not stated), the host macrophage viability is 95.9%.
With `COc1ccc(OC)c(-n2c(C)cn3c4c(=O)[nH]c(=O)n(C)c4nc23)c1` the figure was 119%.
In the case of `CCOC(=O)c1ccc(NC(=O)CSc2nccn2-c2cccc(C)c2)cc1`, the host macrophage viability was determined as 119%.
The figure for `Cc1cc2ccccc2n2c(=O)n(CCNC(=O)CN3C(=O)CCC3=O)nc12` is 114%; for `C/C(=N/NC(=O)CSc1nc2ccccc2[nH]1)c1cccs1` it is 116%.
Turning to `CC(=O)Nc1ccc(Nc2nc(-c3ccccc3)c3cc(C)ccc3n2)cc1`, the host macrophage viability is 124%.
The figure for `CN1C(=O)c2cccc(NC(=O)c3cc(=O)c4ccccc4o3)c2C1=O` is 123%; for `COc1cccc(/C=N/NC(=O)c2n[nH]c3c2CCc2ccccc2-3)c1` it is 107%.
With `CCCc1cc(=O)[nH]c(SCC(=O)Nc2cc(C)on2)n1` the figure was 95.2%; with `CSc1nc2ccc3nc(Nc4nc5cc6c(cc5s4)OCO6)sc3c2s1`, 110 ± 7.4%.
With `Cc1ccc(N2C(=O)CC(Sc3ccccc3C(=O)O)C2=O)c(Br)c1` (configuration not stated) the figure was 111%; with `COc1ccc2o/c(=N\c3cccc(C#N)c3)c(C(=O)NC(C)=O)cc2c1`, 96.5%.
With `CC(C)n1c(CN2CCN(c3ccc(F)cc3)CC2)nc2c1c(=O)n(C)c(=O)n2C`, the host macrophage viability came to 125%.
As for `COc1ccccc1Nc1nc(NCc2ccco2)c2ccccc2n1`, the host macrophage viability worked out at 120%.
With `O=C(CSc1nc(O)c2nc[nH]c2n1)N1CCN(c2ccccc2F)CC1` the figure was 101%.
The figure for `COc1cccc(NC(=O)CSc2ncnc3c2sc2nc4ccccc4cc23)c1` is 110%; for `CC(NC(=O)Cc1csc2nc(-c3ccc(F)cc3)cn12)c1ccccc1` (configuration not stated) it is 98.4%.
The figure for `O=C(NCc1ccco1)c1cnc2n(c1=O)CCS2` is 137%; for `CCOC(=O)c1sc(NC(=O)CSC2=NN3CCCC(=O)N=C3S2)c(C(=O)OCC)c1C` it is 120%; for `COc1c(Br)ccc2c1sc1ncnc(OC)c12` it is 116%.
Consider `CCS(=O)(=O)c1cccc(C(=O)Nc2nc3c(s2)COc2ccccc2-3)c1`, for which the host macrophage viability was determined as 124%.
As to `COC(=O)c1ccc2nc(NC(=O)c3ccc(C)cc3C)sc2c1`, the host macrophage viability worked out at 117%.
The figure for `COc1ccc(C(=O)Nc2ccc3nc[nH]c3c2)cc1OC` is 107%; for `O=C(Nc1ccon1)c1cccn(OCc2ccccc2F)c1=O` it is 102%.
Take `CCS(=O)(=O)c1ccc(C(=O)/N=c2/sc3cccc(Cl)c3n2C)cc1`: the host macrophage viability was 102%.
Take `Cc1ccc(C)c2[nH]c(=O)c(CCNC(=O)COc3ccc(Cl)cc3Cl)cc12`: the host macrophage viability was 130%.
The figure for `O=C1COc2ccc(S(=O)(=O)Nc3cccc(C(=O)N4CCOCC4)c3)cc2N1` is 91.6%; for `Cc1csc2nc(O)c(C(=O)NCc3ccccn3)c(=O)n12` it is 103%.
Turning to `Cc1sc(NC(=O)c2ccco2)nc1-c1ccc2c(c1)CCN2C(=O)C1CC1`, the host macrophage viability was determined as 107%.
The figure for `O=C(CC1CCN(C(=O)c2cc3cc(Cl)ccc3[nH]2)CC1)NCc1ccccc1Cl` is 81.7%; for `COc1ccc(Cn2c(=O)c3cccnc3n(-c3ccccc3)c2=O)cc1` it is 118%; for `COc1ccc(C(=O)N2CCN(c3nc(C)c(C)c(=O)[nH]3)CC2)cc1` it is 89.9%.
With `COc1ccc(-c2nsc3c(SCC(C)=O)ncnc23)cc1` the figure was 145%; with `CCOc1ccc(CC(=O)Oc2cc(C)[nH]c(=O)c2[N+](=O)[O-])cc1`, 117%; with `COc1ccc(Br)cc1CNC(=O)c1nccn1Cc1ccccc1C`, 123%.
On to `Cc1ccc([N+](=O)[O-])cc1N1C(=O)CC(Nc2ccc(N3CCOCC3)cc2)C1=O` (configuration not stated), for which the host macrophage viability worked out at 91.2%.
Take `Cc1cc2c(=O)n(CC(=O)NC(c3cccs3)C(C)C)cnc2s1` (configuration not stated): the host macrophage viability was found to be 109%.
Regarding `C#CCn1/c(=N/C(=O)CN2C(=O)CCC2=O)sc2c3ccccc3ccc21`, the host macrophage viability was determined as 111%.
With `COc1ccc(Nc2nc(C)c3nc(C)n(-c4ccc(OC)c(Cl)c4)c3n2)cc1Cl` the figure was 98.9%.
With `Cc1ccc(C)c(C(=O)Nc2nc3c(s2)COc2ccccc2-3)c1` the figure was 133%; with `CN1C(=O)c2cccc(NC(=O)c3ccc(Br)s3)c2C1=O`, 130%.
With `Cc1ccc(-c2nc(N)n(C(=O)C(c3ccccc3)c3ccccc3)n2)cc1C` the figure was 102%; with `Cc1ccc(S(=O)(=O)N(C)c2cncc(C(=O)NC(C)CCc3ccccc3)c2)cc1` (configuration not stated), 101%.
In the case of `Cc1cnc(NC(=O)CSc2ncnc3c(-c4ccc(F)cc4)nsc23)s1`, the host macrophage viability is 111%.
For `COc1ccc(Cc2nc3c4c(C)c(C)n(-c5ccc(C)cc5)c4ncn3n2)cc1`, the host macrophage viability stood at 125%.
With `Cc1cc(N2CCN(C(=O)c3ccc(=O)n(C)c3)CC2)nc(C)n1` the figure was 105%; with `O=C(CN1C(=O)c2ccccc2C1=O)Nc1nc2c(s1)CSc1ccccc1-2`, 124%.
On to `CCOC(=O)CCc1c(C)[nH]c2c(C(=O)Nc3ccccc3C)cnn2c1=O`, for which the host macrophage viability was 127%.
Take `Clc1cccc(NCc2nnc3n2CCCCC3)c1`: the host macrophage viability turned out to be 96.1%.
With `CCC(SC1=Nc2ccccc2C2=NC(C)C(=O)N12)C(=O)Nc1cc(F)ccc1F` (configuration not stated), the host macrophage viability was determined as 115%.
Take `CCc1cc(Sc2nnc(NC(C)=O)s2)n2ncnc2n1`: the host macrophage viability worked out at 79.2%.
Turning to `CNC(=O)c1ccsc1NC(=O)CN1C(=O)CCC1=O`, the host macrophage viability was determined as 117%.
With `COc1ccccc1NC(=O)C1=C(C)NC(=O)NC1c1ccc(Cl)cc1Cl` (configuration not stated) the figure was 114%.
Regarding `COc1ccc(CCNc2nc(C(F)(F)F)nc3c(C)cc(C)cc23)cc1OC`, the host macrophage viability stood at 119%.
For `CCOC(=O)c1sc2nc(Cc3ccc(OC)c(OC)c3)[nH]c(=O)c2c1C`, the host macrophage viability was 123%.
The figure for `O=C(NCc1ccco1)c1ccc2c(c1)C(=O)c1ccccc1-2` is 115%; for `Cc1cc(NC(=O)CSC2=NS(=O)(=O)c3cc(Cl)ccc3N2)no1` it is 112%; for `CNc1nc2c(c(=O)n(C)c(=O)n2C)n1CC(O)COc1ccccc1C` (configuration not stated) it is 130%.
